Results reported in the supplement of paper PMC10689618.
Where a name gives a salt, the structure may show the parent alone. This is one part of the list. Repeats are few or missing, and single values can be far off.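 Labelled rat cortical synaptosomes were engulfed by primary human fetal astrocytes. Engulfment equaled a red/green ratio, corrected for calcein live-cell signal and normalized to the plate median. Compounds were toxic when calcein dropped over 30%, and reduced phagocytosis when below 70% of the median above 5 µM.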

Key:
Human fetal astrocytes [1] = test: loss of total cells relative to no-compound high-control median (toxicity); higher = more toxic (fewer cells); details: 24 h
Human fetal astrocytes [2] = test: synaptosome phagocytosis (pHrodo/calcein intensity ratio) relative to plate median of data wells; higher = more phagocytosis; details: 24 h

SMILES	loss of total cells (Human fetal astrocytes [1]; 1.39 µM) [%]	loss of total cells (Human fetal astrocytes [1]; 2.78 µM) [%]	loss of total cells (Human fetal astrocytes [1]; 5.56 µM) [%]	loss of total cells (Human fetal astrocytes [1]; 11.11 µM) [%]	loss of total cells (Human fetal astrocytes [1]; 22.22 µM) [%]	synaptosome phagocytosis (Human fetal astrocytes [2]; 1.39 µM) [%]	synaptosome phagocytosis (Human fetal astrocytes [2]; 2.78 µM) [%]	synaptosome phagocytosis (Human fetal astrocytes [2]; 5.56 µM) [%]	synaptosome phagocytosis (Human fetal astrocytes [2]; 11.11 µM) [%]	synaptosome phagocytosis (Human fetal astrocytes [2]; 22.22 µM) [%]
CN(C)CCCSC(=N)N	-3.3	-12.6	17.6	31.1	21.5	98.7	83.1	115	79	102
Cc1ncc([N+](=O)[O-])n1CC(C)O (stereo not given) [1-(2-Methyl-5-nitro-imidazol-1-yl)-propan-2-ol]	6.1	11.9	15.9	11.3	19.7	95.5	135	64.5	129	133
CC(=O)N[C@@H](CS)C(=O)O [N-Acetyl-L-Cysteine]	-12.4	3.4	2.1	-19.5	12.5	48.8	81.7	108	109	82.4
N[C@@H](C(=O)N[C@@H]1C(=O)N2C(C(=O)O)=C(Cl)CS[C@H]12)c1ccccc1	-9.2	-3.7	-4.2	-8.4	0.3	133	150	112	89.9	99.8
CC(CCc1ccc(O)cc1)NCCc1ccc(O)c(O)c1 (stereo not given)	-33.9	31.7	6.8	27.2	16.5	56.6	105	98.4	74.5	86.5
COc1cc([C@@H]2c3cc4c(cc3[C@@H](O[C@@H]3O[C@@H]5CO[C@@H](C)O[C@H]5[C@H](O)[C@H]3O)[C@H]3COC(=O)[C@H]23)OCO4)cc(OC)c1O	3.3	-1	6.3	10.7	1.5	95.2	99.1	108	81.2	94.3
CC(C)OC(=O)C(C)(C)Oc1ccc(C(=O)c2ccc(Cl)cc2)cc1 [Fenofibrate]	-21.6	-12.5	-7.5	-0.8	38	93.9	120	107	99.8	104
CCCCCCCCCCCCCCCC(=O)O[C@@H]1[C@@H](O)[C@@H](O)[C@@H]([C@H](NC(=O)[C@@H]2C[C@@H](CCC)CN2C)[C@H](C)Cl)O[C@@H]1SC	-45.2	-34.1	-5.6	-16.7	-9.7	82.2	112	115	68.2	118
CN(C)/N=N/c1nc[nH]c1C(N)=O [Dacarbazine DIC DTIC DTIE ICDT ICDMT DeticeneDTIC-Dome]	4.5	-35.6	-15.3	-15.3	-14.9	89.4	118	100	98	108
CC[C@@]1(O)C(=O)OCc2c1cc1n(c2=O)Cc2cc3c(CN(C)C)c(O)ccc3nc2-1	-26.6	-2.7	-2.1	-18	7.4	111	90.1	79.5	112	88.7
COc1ccnc(C[S+]([O-])c2nc3cc(OC(F)F)ccc3[nH]2)c1OC (stereo not given)	10	-1.5	-2.1	-28.9	-6.8	96.1	95.8	85.8	125	79.4
CC(=O)O[C@@H]1CC[C@@]2(C)C(C[C@@H](OC(C)=O)[C@@]3(C)C4=CC(=O)O[C@@H](c5ccoc5)[C@]4(C)CCC23)C1(C)C (stereo partly drawn) [3alpha-ACETOXYDIHYDRODEOXYGEDUNIN]	-7.6	-6.6	34.4	12.3	27	104	90.2	129	104	102
NC[C@@H]1O[C@H](O[C@H]2[C@@H](O)[C@H](O[C@@H]3[C@@H](O)[C@H](N)C[C@H](N)[C@H]3O[C@H]3O[C@H](CN)[C@@H](O)[C@H](O)[C@H]3N)O[C@@H]2CO)[C@H](N)[C@@H](O)[C@@H]1O	-10.4	-15.9	-14.6	-9.5	-13.1	78.4	124	81.8	108	110
CC(C)(C)NCC(O)COc1cccc2c1CC(O)C(O)C2 (stereo not given)	23.4	-46.8	15.5	35.1	13.4	162	111	111	125	136
CC(=O)S[C@@H]1CC2=CC(=O)CC[C@]2(C)[C@H]2CC[C@@]3(C)[C@@H](CC[C@@]34CCC(=O)O4)[C@H]12	-6.2	-18.6	-13.2	9.5	-4	92.1	118	90	92.6	81.7
C1CCC(C(CC2CCCCN2)C2CCCCC2)CC1 (stereo not given)	-39.5	36.5	36.6	42.3	37.1	42.8	54.6	19.2	0	11.8
CCC(=O)O[C@]1(C(=O)CCl)[C@@H](C)C[C@H]2[C@@H]3CCC4=CC(=O)C=C[C@]4(C)[C@@]3(F)[C@@H](O)C[C@@]21C	-39.5	12.7	5.6	46.9	2.8	93.2	134	112	121	85.7
CCn1cc(C(=O)O)c(=O)c2cc(F)c(N3CCN(C)CC3)cc21	-45.2	7.1	-6.8	23.9	3.4	58.3	97.7	123	97.6	110
NC12CC3CC(CC(C3)C1)C2 [Amantadine hydrochloride]	-5.8	-13.1	5.7	-12.5	21.5	106	117	104	116	84.8
O=c1ccn([C@@H]2O[C@H](COP(=O)(O)OP(=O)(O)OP(=O)(O)O)[C@@H](O)[C@H]2O)c(=O)[nH]1	-13.9	-1.8	0.7	-2	18.5	136	135	120	112	122

Fetched by compound from above (2):
SMILES	loss of total cells (Human fetal astrocytes [1]; 1.39 µM) [%]	loss of total cells (Human fetal astrocytes [1]; 2.78 µM) [%]	loss of total cells (Human fetal astrocytes [1]; 5.56 µM) [%]	loss of total cells (Human fetal astrocytes [1]; 11.11 µM) [%]	loss of total cells (Human fetal astrocytes [1]; 22.22 µM) [%]	synaptosome phagocytosis (Human fetal astrocytes [2]; 1.39 µM) [%]	synaptosome phagocytosis (Human fetal astrocytes [2]; 2.78 µM) [%]	synaptosome phagocytosis (Human fetal astrocytes [2]; 5.56 µM) [%]	synaptosome phagocytosis (Human fetal astrocytes [2]; 11.11 µM) [%]	synaptosome phagocytosis (Human fetal astrocytes [2]; 22.22 µM) [%]
CN(C)CCCSC(=N)N	-3.3	-12.6	17.6	31.1	21.5	98.7	83.1	115	79	102
CC(C)OC(=O)C(C)(C)Oc1ccc(C(=O)c2ccc(Cl)cc2)cc1 [Fenofibrate]	-21.6	-12.5	-7.5	-0.8	38	93.9	120	107	99.8	104
